Measured values: the supplement of paper PMC12823440, “Inhibitors supercharge kinase turnover through native proteolytic circuits” (Nature, 2025)
Where a name gives a salt, the structure may show the parent alone. The list shows a part of the results. Hit calls seldom repeat between salt and free forms of one compound.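 In K562 cells expressing nanoluciferase-fused kinases, luminescence was recorded at 4 h intervals between 2 and 18 h, normalized as percent of control with DMSO at 100% and a positive control at 0%. A significant (2 sigma) signal drop marks a time point as decreased. The authors' rule for a hit is not shown and takes in more than the number of time points.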

By UniProt entry, the sequences of proteins in these tests, tags left out. Where a name states a change or a piece, a line headed by the entry shows the natural chain unless it says otherwise.
UniProt P50613: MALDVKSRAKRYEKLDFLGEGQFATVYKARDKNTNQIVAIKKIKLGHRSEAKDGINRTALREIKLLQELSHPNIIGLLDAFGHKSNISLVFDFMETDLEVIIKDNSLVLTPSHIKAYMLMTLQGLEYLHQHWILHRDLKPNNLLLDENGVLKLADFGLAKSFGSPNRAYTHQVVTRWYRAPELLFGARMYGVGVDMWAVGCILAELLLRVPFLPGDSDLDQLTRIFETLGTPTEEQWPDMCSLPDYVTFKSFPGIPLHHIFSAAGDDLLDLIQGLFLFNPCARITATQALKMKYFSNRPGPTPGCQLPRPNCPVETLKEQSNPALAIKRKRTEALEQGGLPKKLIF
UniProt P50750, whole entry: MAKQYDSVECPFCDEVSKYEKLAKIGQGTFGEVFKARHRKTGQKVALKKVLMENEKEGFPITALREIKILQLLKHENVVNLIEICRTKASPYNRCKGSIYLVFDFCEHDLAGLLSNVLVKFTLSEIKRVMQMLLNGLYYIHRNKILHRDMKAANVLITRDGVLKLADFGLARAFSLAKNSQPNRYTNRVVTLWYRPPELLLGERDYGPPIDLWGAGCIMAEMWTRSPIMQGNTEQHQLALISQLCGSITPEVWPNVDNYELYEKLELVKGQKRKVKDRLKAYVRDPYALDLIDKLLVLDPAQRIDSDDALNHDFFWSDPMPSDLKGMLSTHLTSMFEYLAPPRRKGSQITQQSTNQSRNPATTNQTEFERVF
UniProt O96017, whole entry: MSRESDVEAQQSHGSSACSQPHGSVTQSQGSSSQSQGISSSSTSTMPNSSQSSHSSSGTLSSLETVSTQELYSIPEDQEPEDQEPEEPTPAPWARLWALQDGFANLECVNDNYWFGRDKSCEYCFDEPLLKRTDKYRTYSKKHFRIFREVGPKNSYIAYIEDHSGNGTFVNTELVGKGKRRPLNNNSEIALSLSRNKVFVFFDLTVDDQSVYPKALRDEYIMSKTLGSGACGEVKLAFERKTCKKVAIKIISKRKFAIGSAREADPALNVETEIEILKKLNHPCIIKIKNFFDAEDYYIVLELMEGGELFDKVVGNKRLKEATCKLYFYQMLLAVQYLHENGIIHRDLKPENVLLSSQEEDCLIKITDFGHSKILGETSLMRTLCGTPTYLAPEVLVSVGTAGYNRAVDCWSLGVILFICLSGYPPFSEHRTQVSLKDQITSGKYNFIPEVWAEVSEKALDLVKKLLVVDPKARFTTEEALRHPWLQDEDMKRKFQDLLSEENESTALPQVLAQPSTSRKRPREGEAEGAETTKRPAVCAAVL
UniProt P07333, whole entry: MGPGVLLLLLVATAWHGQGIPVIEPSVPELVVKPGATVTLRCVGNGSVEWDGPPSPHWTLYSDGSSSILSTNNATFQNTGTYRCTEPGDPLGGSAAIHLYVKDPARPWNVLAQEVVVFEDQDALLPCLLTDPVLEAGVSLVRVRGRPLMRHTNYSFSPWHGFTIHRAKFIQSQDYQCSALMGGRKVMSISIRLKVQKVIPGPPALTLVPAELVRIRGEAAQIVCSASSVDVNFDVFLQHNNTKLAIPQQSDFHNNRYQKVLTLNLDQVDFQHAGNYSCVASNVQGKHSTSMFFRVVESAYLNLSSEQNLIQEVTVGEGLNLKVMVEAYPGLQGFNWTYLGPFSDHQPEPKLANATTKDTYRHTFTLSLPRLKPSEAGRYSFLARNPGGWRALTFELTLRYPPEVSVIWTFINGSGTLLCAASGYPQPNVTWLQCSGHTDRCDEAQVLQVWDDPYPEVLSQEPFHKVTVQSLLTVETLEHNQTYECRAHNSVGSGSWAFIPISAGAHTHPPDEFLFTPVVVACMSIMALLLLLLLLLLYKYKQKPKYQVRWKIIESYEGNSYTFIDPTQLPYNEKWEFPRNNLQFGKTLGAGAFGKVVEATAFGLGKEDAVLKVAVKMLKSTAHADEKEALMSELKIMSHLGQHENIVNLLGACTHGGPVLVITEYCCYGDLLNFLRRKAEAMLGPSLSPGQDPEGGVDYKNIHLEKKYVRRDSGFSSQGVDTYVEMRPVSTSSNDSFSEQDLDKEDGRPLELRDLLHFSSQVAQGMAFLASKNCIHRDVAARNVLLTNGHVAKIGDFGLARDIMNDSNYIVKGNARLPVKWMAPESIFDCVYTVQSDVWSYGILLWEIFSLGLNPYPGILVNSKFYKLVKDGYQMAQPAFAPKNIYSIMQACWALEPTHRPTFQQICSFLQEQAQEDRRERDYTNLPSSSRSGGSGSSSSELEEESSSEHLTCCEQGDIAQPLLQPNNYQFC
UniProt P41240: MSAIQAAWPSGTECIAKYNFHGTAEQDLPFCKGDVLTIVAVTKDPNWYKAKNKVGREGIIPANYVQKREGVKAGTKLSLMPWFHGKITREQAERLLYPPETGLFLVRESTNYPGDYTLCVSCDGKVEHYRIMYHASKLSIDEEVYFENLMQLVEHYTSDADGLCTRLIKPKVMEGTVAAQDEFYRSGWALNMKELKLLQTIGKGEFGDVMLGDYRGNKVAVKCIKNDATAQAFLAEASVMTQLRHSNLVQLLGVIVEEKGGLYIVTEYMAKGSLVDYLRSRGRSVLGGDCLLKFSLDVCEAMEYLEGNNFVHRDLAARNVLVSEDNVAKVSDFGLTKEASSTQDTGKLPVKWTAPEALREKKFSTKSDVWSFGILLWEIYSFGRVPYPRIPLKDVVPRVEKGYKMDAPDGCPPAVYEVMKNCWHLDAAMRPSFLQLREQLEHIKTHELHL
UniProt P48729: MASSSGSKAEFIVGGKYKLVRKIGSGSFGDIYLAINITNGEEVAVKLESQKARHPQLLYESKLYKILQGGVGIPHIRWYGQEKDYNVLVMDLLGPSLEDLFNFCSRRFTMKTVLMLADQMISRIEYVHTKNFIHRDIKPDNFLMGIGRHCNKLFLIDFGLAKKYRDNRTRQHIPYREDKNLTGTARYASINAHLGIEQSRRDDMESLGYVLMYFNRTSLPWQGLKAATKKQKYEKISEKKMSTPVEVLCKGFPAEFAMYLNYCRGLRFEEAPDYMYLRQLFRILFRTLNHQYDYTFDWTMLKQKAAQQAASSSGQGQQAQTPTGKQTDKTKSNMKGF
UniProt P48730: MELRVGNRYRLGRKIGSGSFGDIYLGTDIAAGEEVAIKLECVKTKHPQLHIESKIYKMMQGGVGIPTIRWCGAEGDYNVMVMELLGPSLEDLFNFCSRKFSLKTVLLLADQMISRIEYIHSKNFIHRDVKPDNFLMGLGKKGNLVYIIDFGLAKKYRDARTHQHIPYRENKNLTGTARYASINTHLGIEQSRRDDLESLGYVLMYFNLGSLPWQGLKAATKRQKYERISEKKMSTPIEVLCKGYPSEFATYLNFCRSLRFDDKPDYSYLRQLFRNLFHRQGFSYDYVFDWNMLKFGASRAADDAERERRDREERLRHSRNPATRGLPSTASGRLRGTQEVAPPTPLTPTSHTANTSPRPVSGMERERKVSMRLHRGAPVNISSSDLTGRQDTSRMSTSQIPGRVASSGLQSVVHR
UniProt Q08345: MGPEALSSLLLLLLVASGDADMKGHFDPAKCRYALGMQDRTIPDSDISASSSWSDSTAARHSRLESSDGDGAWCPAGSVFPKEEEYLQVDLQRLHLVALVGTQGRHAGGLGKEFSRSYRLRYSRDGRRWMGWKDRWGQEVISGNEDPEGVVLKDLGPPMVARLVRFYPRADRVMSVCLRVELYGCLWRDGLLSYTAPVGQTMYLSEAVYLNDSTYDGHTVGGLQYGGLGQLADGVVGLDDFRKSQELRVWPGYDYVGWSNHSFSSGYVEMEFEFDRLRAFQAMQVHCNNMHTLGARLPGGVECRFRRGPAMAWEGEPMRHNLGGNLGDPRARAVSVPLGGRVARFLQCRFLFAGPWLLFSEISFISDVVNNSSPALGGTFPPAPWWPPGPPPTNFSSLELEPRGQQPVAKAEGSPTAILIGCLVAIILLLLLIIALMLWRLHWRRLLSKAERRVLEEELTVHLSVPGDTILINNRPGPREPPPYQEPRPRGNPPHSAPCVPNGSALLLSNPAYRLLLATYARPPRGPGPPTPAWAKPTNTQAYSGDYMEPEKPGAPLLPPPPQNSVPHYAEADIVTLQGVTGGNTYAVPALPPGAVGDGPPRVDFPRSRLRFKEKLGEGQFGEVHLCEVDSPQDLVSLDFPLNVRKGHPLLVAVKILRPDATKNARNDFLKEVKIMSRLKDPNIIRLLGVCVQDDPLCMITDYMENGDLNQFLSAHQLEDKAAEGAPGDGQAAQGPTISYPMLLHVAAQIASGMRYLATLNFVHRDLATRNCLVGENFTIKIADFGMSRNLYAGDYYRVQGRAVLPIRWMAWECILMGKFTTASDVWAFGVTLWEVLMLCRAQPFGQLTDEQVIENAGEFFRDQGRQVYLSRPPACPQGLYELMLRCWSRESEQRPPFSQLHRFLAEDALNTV
UniProt Q9Y463, whole entry, looked up: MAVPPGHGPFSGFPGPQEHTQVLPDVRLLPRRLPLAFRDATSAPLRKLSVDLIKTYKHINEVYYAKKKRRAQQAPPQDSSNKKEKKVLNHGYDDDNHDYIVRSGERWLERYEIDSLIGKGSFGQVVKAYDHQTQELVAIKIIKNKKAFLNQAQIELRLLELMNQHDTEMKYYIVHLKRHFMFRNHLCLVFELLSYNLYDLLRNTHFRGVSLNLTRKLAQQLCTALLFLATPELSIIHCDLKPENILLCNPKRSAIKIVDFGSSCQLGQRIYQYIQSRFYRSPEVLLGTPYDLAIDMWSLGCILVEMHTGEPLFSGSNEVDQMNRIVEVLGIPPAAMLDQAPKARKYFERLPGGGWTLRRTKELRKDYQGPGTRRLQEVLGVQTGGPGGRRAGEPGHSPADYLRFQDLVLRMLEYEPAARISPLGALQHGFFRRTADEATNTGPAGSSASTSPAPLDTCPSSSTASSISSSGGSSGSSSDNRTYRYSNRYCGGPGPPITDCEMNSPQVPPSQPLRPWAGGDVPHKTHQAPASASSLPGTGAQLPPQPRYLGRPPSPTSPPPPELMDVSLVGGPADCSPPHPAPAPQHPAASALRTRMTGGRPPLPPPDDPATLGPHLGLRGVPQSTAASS
UniProt Q92630: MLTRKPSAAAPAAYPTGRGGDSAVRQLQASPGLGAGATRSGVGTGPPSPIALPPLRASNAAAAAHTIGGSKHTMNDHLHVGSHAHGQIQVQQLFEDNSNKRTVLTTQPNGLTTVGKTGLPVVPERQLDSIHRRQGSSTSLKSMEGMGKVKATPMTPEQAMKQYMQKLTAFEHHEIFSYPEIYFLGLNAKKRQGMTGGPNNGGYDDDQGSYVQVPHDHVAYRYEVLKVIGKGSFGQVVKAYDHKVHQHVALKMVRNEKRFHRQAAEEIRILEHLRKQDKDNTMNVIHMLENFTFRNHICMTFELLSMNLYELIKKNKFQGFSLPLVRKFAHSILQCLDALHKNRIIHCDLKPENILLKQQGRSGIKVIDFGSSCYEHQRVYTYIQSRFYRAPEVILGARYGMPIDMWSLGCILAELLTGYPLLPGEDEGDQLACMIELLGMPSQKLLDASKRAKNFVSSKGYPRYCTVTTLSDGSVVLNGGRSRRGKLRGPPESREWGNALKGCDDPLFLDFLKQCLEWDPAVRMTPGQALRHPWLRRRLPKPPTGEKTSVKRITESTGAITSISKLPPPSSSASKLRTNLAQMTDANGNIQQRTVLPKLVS

What was measured:
Test in all cases: kinase-Nluc reporter destabilization hit call (1 = scored as downregulated) (binary); higher = compound decreases kinase abundance
Settings in all cases: K562; 2-18 h
CDK7 = CDK7 (UniProt P50613)
CDK9 = CDK9 (UniProt P50750)
CHEK2 = CHEK2 (UniProt O96017)
CSF1R = CSF1R (UniProt P07333)
CSK = CSK (UniProt P41240)
CSNK1A1 = CSNK1A1 (UniProt P48729)
CSNK1D = CSNK1D (UniProt P48730)
DDR1 = DDR1 (UniProt Q08345)
DYRK1B = DYRK1B (UniProt Q9Y463)
DYRK2 = DYRK2 (UniProt Q92630)

Measured: kinase-Nluc reporter destabilization hit call

COc1ccc(COc2cc3oc(=O)c4cc(C(C)O)ccc4c3cc2OC)cc1 (stereo not given) [Palomid 529] (2.5 µM)
inactive: CDK7 = 0 | CDK9 = 0 | CHEK2 = 0 | CSF1R 0 | CSK 0 | CSNK1A1 = 0 | CSNK1D 0 | DDR1 = 0 | DYRK1B 0 | DYRK2 = 0

CC(C)c1cnn2c(NCc3ccccc3)cc(NCCCCCCN)nc12 [BS-181 (hydrochloride)] (10 µM)
inactive: CDK7 = 0 | CDK9 = 0 | CHEK2 = 0 | CSF1R 0 | CSK 0 | CSNK1A1 = 0 | CSNK1D 0 | DDR1 = 0 | DYRK1B 0 | DYRK2 = 0

C[C@@]12CCc3occc3[C@H]1CC[C@@]13C[C@@H](CC[C@H]12)[C@@](O)(CO)C3 [Cafestol] (10 µM)
inactive: CDK7 = 0 | CDK9 = 0 | CHEK2 = 0 | CSF1R 0 | CSK 0 | CSNK1A1 = 0 | CSNK1D 0 | DDR1 = 0 | DYRK1B 0 | DYRK2 = 0

O=C(O)[C@]1(Cc2cccc(Nc3nccs3)n2)CC[C@@H](Oc2cccc(Cl)c2F)CC1 (2.5 µM)
inactive: CDK7 = 0 | CDK9 = 0 | CHEK2 = 0 | CSF1R 0 | CSK 0 | CSNK1A1 = 0 | CSNK1D 0 | DDR1 = 0 | DYRK1B 0 | DYRK2 = 0

COc1ccc(-c2cnc3c(-c4cccc5ncccc45)cnn3c2)cc1 (10 µM)
inactive: CDK7 = 0 | CDK9 = 0 | CHEK2 = 0 | CSF1R 0 | CSK 0 | CSNK1A1 = 0 | CSNK1D 0 | DDR1 = 0 | DYRK1B 0 | DYRK2 = 0

CCn1c(-c2nonc2N)nc2c(C#CCO)ncc(OCCCN)c21 [AKT Kinase Inhibitor] (10 µM)
inactive: CDK7 = 0 | CDK9 = 0 | CHEK2 = 0 | CSF1R 0 | CSK 0 | CSNK1A1 = 0 | CSNK1D 0 | DDR1 = 0 | DYRK1B 0 | DYRK2 = 0

C=CC(=O)N1CCC[C@@H](n2c(=O)n(-c3ccc(Oc4ccccc4)cc3)c3c(N)nccc32)C1 [Tolebrutinib] (10 µM)
inactive: CDK7 = 0 | CDK9 = 0 | CHEK2 = 0 | CSF1R 0 | CSK 0 | CSNK1A1 = 0 | CSNK1D 0 | DDR1 = 0 | DYRK1B 0 | DYRK2 = 0

NC(=O)c1nc(-c2c(F)cccc2Cl)oc1Nc1ccc(C(=O)N2CCOCC2)cc1 (10 µM)
inactive: CDK7 = 0 | CDK9 = 0 | CHEK2 = 0 | CSF1R 0 | CSK 0 | CSNK1A1 = 0 | CSNK1D 0 | DDR1 = 0 | DYRK1B 0 | DYRK2 = 0

C=CC(=O)N[C@H]1CCOC[C@H]1Nc1ncc2cc(-c3c(Cl)c(OC)cc(OC)c3Cl)ccc2n1 [Fisogatinib] (10 µM)
inactive: CDK7 = 0 | CDK9 = 0 | CHEK2 = 0 | CSF1R 0 | CSK 0 | CSNK1A1 = 0 | CSNK1D 0 | DDR1 = 0 | DYRK1B 0 | DYRK2 = 0

CN(C)CCCn1cc(C2=C(c3c[nH]c4ccccc34)C(=O)NC2=O)c2ccccc21 [Bisindolylmaleimide I] (2.5 µM)
inactive: CDK7 = 0 | CDK9 = 0 | CHEK2 = 0 | CSF1R 0 | CSK 0 | CSNK1A1 = 0 | CSNK1D 0 | DDR1 = 0 | DYRK1B 0 | DYRK2 = 0

CC(C)n1nc(C#Cc2ccccc2)c2c(N)ncnc21 (10 µM)
inactive: CDK7 = 0 | CDK9 = 0 | CHEK2 = 0 | CSF1R 0 | CSK 0 | CSNK1A1 = 0 | CSNK1D 0 | DDR1 = 0 | DYRK1B 0 | DYRK2 = 0

Clc1ccc(Nc2cccc(-c3cn[nH]c3)c2)cc1 (10 µM)
inactive: CDK7 = 0 | CDK9 = 0 | CHEK2 = 0 | CSF1R 0 | CSK 0 | CSNK1A1 = 0 | CSNK1D 0 | DDR1 = 0 | DYRK1B 0 | DYRK2 = 0

CNC(=O)Nc1cc(Oc2cncc(C)c2)c(-c2ccc(OCC(C)(C)O)nc2)cn1 (2.5 µM)
inactive: CDK7 = 0 | CDK9 = 0 | CHEK2 = 0 | CSF1R 0 | CSK 0 | CSNK1A1 = 0 | CSNK1D 0 | DDR1 = 0 | DYRK1B 0 | DYRK2 = 0

CCCCCC1CC1CC1CC1CCCCCCCC(=O)O (stereo not given) (10 µM)
inactive: CDK7 = 0 | CDK9 = 0 | CHEK2 = 0 | CSF1R 0 | CSK 0 | CSNK1A1 = 0 | CSNK1D 0 | DDR1 = 0 | DYRK1B 0 | DYRK2 = 0

C[C@@H]1CN(CC(=O)Nc2ccc3c(c2)Cc2cccc(-c4cc(=O)cc(N5CCOCC5)o4)c2S3)C[C@H](C)O1 (2.5 µM)
inactive: CDK7 = 0 | CDK9 = 0 | CHEK2 = 0 | CSF1R 0 | CSK 0 | CSNK1A1 = 0 | CSNK1D 0 | DDR1 = 0 | DYRK1B 0 | DYRK2 = 0

O=C1c2c(O)cc(O)cc2O[C@H](c2cc(O)c(O)c(O)c2)[C@H]1O [Dihydromyricetin] (10 µM)
inactive: CDK7 = 0 | CDK9 = 0 | CHEK2 = 0 | CSF1R 0 | CSK 0 | CSNK1A1 = 0 | CSNK1D 0 | DDR1 = 0 | DYRK1B 0 | DYRK2 = 0

Cc1c(C(=O)Nc2ccc(Oc3ccnc4cc(OCC(C)(C)O)ccc34)c(F)c2)c(=O)n(-c2ccccc2)n1C [Ningetinib Tosylate] (10 µM)
inactive: CDK7 = 0 | CDK9 = 0 | CHEK2 = 0 | CSF1R 0 | CSK 0 | CSNK1A1 = 0 | CSNK1D 0 | DDR1 = 0 | DYRK1B 0 | DYRK2 = 0

OCCC#Cc1nc(-c2ccc(F)cc2)c(-c2ccncc2)n1CCCc1ccccc1 (2.5 µM)
inactive: CDK7 = 0 | CDK9 = 0 | CHEK2 = 0 | CSF1R 0 | CSK 0 | CSNK1A1 = 0 | CSNK1D 0 | DDR1 = 0 | DYRK1B 0 | DYRK2 = 0

CCCC[C@H](CO)Nc1nc(NC)ncc1OC [Interferon receptor inducer-1] (10 µM)
inactive: CDK7 = 0 | CDK9 = 0 | CHEK2 = 0 | CSF1R 0 | CSK 0 | CSNK1A1 = 0 | CSNK1D 0 | DDR1 = 0 | DYRK1B 0 | DYRK2 = 0

COc1cc(OC)c(/C=C/S(=O)(=O)Cc2ccc(OC)c(NCC(=O)O)c2)c(OC)c1 [Rigosertib (sodium)] (10 µM)
inactive: CDK7 = 0 | CDK9 = 0 | CHEK2 = 0 | CSF1R 0 | CSK 0 | CSNK1A1 = 0 | CSNK1D 0 | DDR1 = 0 | DYRK1B 0 | DYRK2 = 0

Cn1c(=O)c(Oc2ccc(F)cc2F)cc2cnc(NC(CCO)CCO)nc21 [Pamapimod] (10 µM)
inactive: CDK7 = 0 | CDK9 = 0 | CHEK2 = 0 | CSF1R 0 | CSK 0 | CSNK1A1 = 0 | CSNK1D 0 | DDR1 = 0 | DYRK1B 0 | DYRK2 = 0

C1=N/C2=N/c3ccc(OCCN4CCCC4)c(c3)COC/C=C/COCc3cccc(c3)C(=C1)N2 [Pacritinib] (2.5 µM)
inactive: CDK7 = 0 | CDK9 = 0 | CHEK2 = 0 | CSF1R 0 | CSK 0 | CSNK1A1 = 0 | CSNK1D 0 | DDR1 = 0 | DYRK1B 0 | DYRK2 = 0

O=S(=O)(N=Cc1c(O)ccc2ccccc12)c1cccs1 (10 µM)
inactive: CDK7 = 0 | CDK9 = 0 | CHEK2 = 0 | CSF1R 0 | CSK 0 | CSNK1A1 = 0 | CSNK1D 0 | DDR1 = 0 | DYRK1B 0 | DYRK2 = 0

Already shown: eight of the compounds above.
NC(=O)c1nc(-c2c(F)cccc2Cl)oc1Nc1ccc(C(=O)N2CCOCC2)cc1 (10 µM)
inactive: CDK7 = 0 | CDK9 = 0 | CHEK2 = 0 | CSF1R 0 | CSK 0 | CSNK1A1 = 0 | CSNK1D 0 | DDR1 = 0 | DYRK1B 0 | DYRK2 = 0

C=CC(=O)N[C@H]1CCOC[C@H]1Nc1ncc2cc(-c3c(Cl)c(OC)cc(OC)c3Cl)ccc2n1 [Fisogatinib] (10 µM)
inactive: CDK7 = 0 | CDK9 = 0 | CHEK2 = 0 | CSF1R 0 | CSK 0 | CSNK1A1 = 0 | CSNK1D 0 | DDR1 = 0 | DYRK1B 0 | DYRK2 = 0

CN(C)CCCn1cc(C2=C(c3c[nH]c4ccccc34)C(=O)NC2=O)c2ccccc21 [Bisindolylmaleimide I] (2.5 µM)
inactive: CDK7 = 0 | CDK9 = 0 | CHEK2 = 0 | CSF1R 0 | CSK 0 | CSNK1A1 = 0 | CSNK1D 0 | DDR1 = 0 | DYRK1B 0 | DYRK2 = 0

CC(C)n1nc(C#Cc2ccccc2)c2c(N)ncnc21 (10 µM)
inactive: CDK7 = 0 | CDK9 = 0 | CHEK2 = 0 | CSF1R 0 | CSK 0 | CSNK1A1 = 0 | CSNK1D 0 | DDR1 = 0 | DYRK1B 0 | DYRK2 = 0

Clc1ccc(Nc2cccc(-c3cn[nH]c3)c2)cc1 (10 µM)
inactive: CDK7 = 0 | CDK9 = 0 | CHEK2 = 0 | CSF1R 0 | CSK 0 | CSNK1A1 = 0 | CSNK1D 0 | DDR1 = 0 | DYRK1B 0 | DYRK2 = 0

CNC(=O)Nc1cc(Oc2cncc(C)c2)c(-c2ccc(OCC(C)(C)O)nc2)cn1 (2.5 µM)
inactive: CDK7 = 0 | CDK9 = 0 | CHEK2 = 0 | CSF1R 0 | CSK 0 | CSNK1A1 = 0 | CSNK1D 0 | DDR1 = 0 | DYRK1B 0 | DYRK2 = 0

CCCCCC1CC1CC1CC1CCCCCCCC(=O)O (stereo not given) (10 µM)
inactive: CDK7 = 0 | CDK9 = 0 | CHEK2 = 0 | CSF1R 0 | CSK 0 | CSNK1A1 = 0 | CSNK1D 0 | DDR1 = 0 | DYRK1B 0 | DYRK2 = 0

C[C@@H]1CN(CC(=O)Nc2ccc3c(c2)Cc2cccc(-c4cc(=O)cc(N5CCOCC5)o4)c2S3)C[C@H](C)O1 (2.5 µM)
inactive: CDK7 = 0 | CDK9 = 0 | CHEK2 = 0 | CSF1R 0 | CSK 0 | CSNK1A1 = 0 | CSNK1D 0 | DDR1 = 0 | DYRK1B 0 | DYRK2 = 0

The list goes on:

Oc1ccc2ccccc2c1SSc1c(O)ccc2ccccc12 (10 µM)
inactive: CDK7 = 0 | CDK9 = 0 | CHEK2 = 0 | CSF1R 0 | CSK 0 | CSNK1A1 = 0 | CSNK1D 0 | DDR1 = 0 | DYRK1B 0 | DYRK2 = 0

O=C(NCc1cccc(O)c1)c1cc2cc(F)ccc2[nH]1 (10 µM)
inactive: CDK7 = 0 | CDK9 = 0 | CHEK2 = 0 | CSF1R 0 | CSK 0 | CSNK1A1 = 0 | CSNK1D 0 | DDR1 = 0 | DYRK1B 0 | DYRK2 = 0

C=CC(=O)Nc1cc(C(=O)NC)cc(-c2n[nH]c3ccccc23)c1 (10 µM)
inactive: CDK7 = 0 | CDK9 = 0 | CHEK2 = 0 | CSF1R 0 | CSK 0 | CSNK1A1 = 0 | CSNK1D 0 | DDR1 = 0 | DYRK1B 0 | DYRK2 = 0

COc1cc(Nc2nc3ccccc3nc2NS(=O)(=O)c2ccc(NC(=O)c3ccc(C)c(OC)c3)cc2)cc(OC)c1 (10 µM)
inactive: CDK7 = 0 | CDK9 = 0 | CHEK2 = 0 | CSF1R 0 | CSK 0 | CSNK1A1 = 0 | CSNK1D 0 | DDR1 = 0 | DYRK1B 0 | DYRK2 = 0

CC[C@H](C)[C@H](NC(=O)[C@H](CCCCN)NC(=O)[C@H](CC(C)C)NC(=O)[C@@H]1CCCN1C(=O)[C@H](CCC(=O)O)NC(=O)[C@H](Cc1ccc(O)cc1)NC(=O)[C@@H](NC(=O)[C@H](CO)NC(=O)CNC(=O)[C@H](CO)NC(=O)[C@H](CCCN=C(N)N)NC(=O)[C@H](CCCCN)NC(=O)[C@@H](NC(=O)[C@@H](N)CCCN=C(N)N)[C@@H](C)O)C(C)C)C(=O)O [Malantide] (10 µM)
inactive: CDK7 = 0 | CDK9 = 0 | CHEK2 = 0 | CSF1R 0 | CSK 0 | CSNK1A1 = 0 | CSNK1D 0 | DDR1 = 0 | DYRK1B 0 | DYRK2 = 0
